{"source": "PubChem BioAssay AID1259286 (Sanger Institute, 2017)", "test": "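Kinases whose loss adds to targeted drug killing of colorectal cancer cells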 (primary screen)", "system": "NCI-H630 human colorectal cancer cells", "reagent": "siRNA pool against human genes", "challenge": "anchor drugs BYL719 at 1 µM, cetuximab at 5 µg/ml or trametinib at 10 nM, or DMSO vehicle alone; exposure time not given", "detection": "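Replicate-averaged viability as a fraction of non-targeting control, knock-down-alone robust z-score, and per-drug synergy scores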", "scale": "viability z-score, knock-down alone: higher = more viable cells, weaker knock-down effect", "hit rule": "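a gene is called essential when its knock-down-alone viability robust z-score is below -3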", "calls": "active = essential when knocked down alone; inactive = not essential alone", "note": "The deposit covers 794 reagents; this is a random part of them. In the full data, 17 (2.1%) got an active call. 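Calls use knock-down alone only; synergy above 0.15 marked separately; viability seems capped at control level; exposure time not given.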 A number with no mark means an inactive call. Further read-outs or replicates are left out here. No sequences are given here. Not stated in the record: the amount of reagent, the time to read-out."}
{"gene knocked down": "JAK2", "viability z-score, knock-down alone": 0.464}
{"gene knocked down": "CDKN1C", "viability z-score, knock-down alone": 0.464}
{"gene knocked down": "PBK", "viability z-score, knock-down alone": 0.0963}
{"gene knocked down": "TWF1", "viability z-score, knock-down alone": 0.464}
{"gene knocked down": "MAGI3", "viability z-score, knock-down alone": 0.464}
{"gene knocked down": "MED24", "viability z-score, knock-down alone": 0.464}
{"gene knocked down": "TESK1", "viability z-score, knock-down alone": 0.433}
{"gene knocked down": "BMX", "viability z-score, knock-down alone": 0.116}
{"gene knocked down": "DDR2", "viability z-score, knock-down alone": 0.464}
{"gene knocked down": "LMBR1", "viability z-score, knock-down alone": 0.464}
{"gene knocked down": "NEK7", "viability z-score, knock-down alone": 0.464}
{"gene knocked down": "PIK3C3", "viability z-score, knock-down alone": 0.464}
{"gene knocked down": "CALM1", "viability z-score, knock-down alone": 0.464}
{"gene knocked down": "PLK1", "viability z-score, knock-down alone": "-9.44 (active)"}
{"gene knocked down": "MKNK1", "viability z-score, knock-down alone": -1.25}
{"gene knocked down": "ASPM", "viability z-score, knock-down alone": -0.437}
{"gene knocked down": "APC", "viability z-score, knock-down alone": 0.464}
{"gene knocked down": "CHEK2", "viability z-score, knock-down alone": 0.464}
{"gene knocked down": "RNASEL", "viability z-score, knock-down alone": 0.291}
{"gene knocked down": "IKBKG", "viability z-score, knock-down alone": 0.464}
{"gene knocked down": "IGF2R", "viability z-score, knock-down alone": 0.464}
{"gene knocked down": "PRKAA1", "viability z-score, knock-down alone": 0.464}
{"gene knocked down": "CDK15", "viability z-score, knock-down alone": 0.464}
{"gene knocked down": "ADCK1", "viability z-score, knock-down alone": 0.464}
{"gene knocked down": "MAPK14", "viability z-score, knock-down alone": 0.353}
{"gene knocked down": "MAP3K1", "viability z-score, knock-down alone": 0.464}
{"gene knocked down": "MAST3", "viability z-score, knock-down alone": 0.464}
{"gene knocked down": "PRKAR2B", "viability z-score, knock-down alone": 0.464}

Hits (from the list above):
{"gene knocked down": "PLK1", "viability z-score, knock-down alone": "-9.44 (active)"}
